Reference: patent publication US20080227655A1, “Assessment of effect of an agent on a human biological condition using rodent gene expression panels” (priority 2006, published 2008)
At least one compound was matched to its structure with a doubt left.

Tested on: custom 24-gene Mouse Expression Panel (Precision Profile) for Inflammation, whole blood
Test: LPS endotoxin (+/- Dexamethasone pretreatment) challenge in mice, whole blood gene expression by QPCR
Assay type: in vivo, male Swiss Webster mice

Compound: C[C@@H]1C[C@H]2[C@@H]3CCC4=CC(=O)C=C[C@]4(C)[C@@]3(F)[C@@H](O)C[C@]2(C)[C@@]1(O)C(=O)CO [Dexamethasone]
- group-averaged gene expression response for the Dexamethasone+LPS challenge (Dexamethasone pre-treatment one hour prior to LPS, 1.5, 4 and 24 hr, relative to LPS treated time-matched animals, FIG. 4): somewhat limited response
- gene expression response to LPS following prior treatment with Dexamethasone (murine subjects, 1.5 and 4 hour time-points, compared to LPS treatment alone, FIGS. 8A-8B): significantly diminished induction
